# The campaign covered roughly 330,000 compounds. About 7,700 (2.3%) were called active. The shares of active, inactive and inconclusive entries below differ from those in the screen. Calls follow the shape of the dose curve; as a rule, active = well fitted inhibition curve with a large enough effect; inconclusive = small, poorly fitted or top-dose-only effect, or effect the other way; inactive = flat fitted curve, though single readings scatter. A potency beside an inconclusive call is a rough fit, not a confirmed value.
# Test: qHTS screen for small molecules that inhibit ELG1-dependent DNA repair in human embryonic kidney (HEK293T) cells expressing luciferase-tagged ELG1; also: nearly all actives have a fitted effect of over 55% in size
# Conditions: HEK293T ELG1-luciferase reporter, luminescence, 16 h, DNA damage induced by 5-fluorouridine; activity change, negative = inhibition: at 46.1 µM (top of the series)
# In short: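 In this reporter screen, reduction of luminescence relative to DMSO vehicle indicated activity. Compounds and 5-fluorouridine were added together to 2,000 cells per well, incubated for 16 hr at 37 °C, then developed with ONE-Glo.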
# % is scaled to controls: 0 for no effect and ±100 for the full control effect; potency is read from the fitted curve at half-maximal effect.
SMILES,Potency,"activity change, negative = inhibition"
O=C(NCCc1ccccn1)c1cc(-c2cccc3ccccc23)nc2ccccc12,active: 23.1 µM,
Clc1ccc(C(c2nnnn2C2CCCC2)N2CCSCC2)cc1 (centres undefined),"inconclusive: 29.1 µM [inhibitor, single point]",
Cc1ccc(C(=O)Nc2nc3ccccc3s2)s1,"inconclusive: 0.82 µM [activator, partial curve, poor fit]",
Nc1cccc2nsnc12,inactive,
N#Cc1ccc(CSc2ccccn2)c(Cl)c1,"inconclusive: 25.9 µM [activator, single point]",
COc1ccc([N+](=O)[O-])cc1C(=O)Nc1ccc(Cc2ccncc2)cc1,"inconclusive: 20.6 µM [activator, partial curve]",
Cc1ccc(C)c(NC(=O)COc2coc(CN3CCc4ccccc43)cc2=O)c1,"inconclusive: 16.4 µM [inhibitor, partial curve]",
CCCCC(c1nnnn1CC1CCCO1)N1CCN(c2nc3ccccc3s2)CC1 (centres undefined),"inconclusive: 23.1 µM [inhibitor, single point]",
CSc1nsc(SCC(=O)Nc2ccc(NC(C)=O)cc2)n1,"inconclusive: 16.4 µM [activator, partial curve, poor fit]",
COc1cc(OC)c(C(=O)OCC(=O)N(Cc2ccccc2)C(C)(C)C)cc1OC,"inconclusive: 29.1 µM [inhibitor, single point]",
COc1ccc(-n2c(NCCN(C)C)nc3sc4c(c3c2=O)CCCCC4)cc1,"inconclusive: 20.6 µM [activator, single point]",
Cc1cccc(N2CCN(C(=O)C3CCCN(S(=O)(=O)c4cnc[nH]4)C3)CC2C)c1 (centres undefined),active: 23.1 µM,
S=c1[nH]cnc2sc(-c3ccccc3)cc12,"inconclusive: 18.3 µM [activator, partial curve]",
CC1CCc2c(sc(NC(=O)c3nc4ncccn4n3)c2C#N)C1 (centres undefined),"inconclusive: 2.06 µM [activator, full curve]",
C=CCOc1ccc2nc(NC(=O)OC)[nH]c2c1,"inconclusive: 11.6 µM [activator, partial curve]",
COc1cc(/C=C2\SC(=N)N(c3ccc(F)cc3)C2=O)ccc1O,"inconclusive: 20.6 µM [inhibitor, single point]",
C=CCn1cccc(C(=O)Nc2ccc(C)c(Cl)c2)c1=O,"inconclusive: 23.1 µM [activator, partial curve]",
Cc1ccc(Nc2nc(N)nc(CN3CCN(Cc4ccc5c(c4)OCO5)CC3)n2)c(C)c1,"inconclusive: 18.4 µM [inhibitor, single point]",
Cn1c(-c2ccccc2)c(CCO)c2ccccc21,inactive,
COCCc1ncc(CN2CCCC(C(=O)Nc3cccc(-c4cccc(C)c4)c3)C2)cn1 (centres undefined),"inconclusive: 14.6 µM [inhibitor, partial curve, poor fit]",
COC(=O)C1C(=O)c2c([nH]c(C(=O)OC3CCCCCC3)c2C)CC1C (centres undefined),"inconclusive: 1.84 µM [activator, full curve]",
CN(CC(=O)Nc1ccccc1Cl)C(=O)COC(=O)CN1C(=O)NC2(CCCC2)C1=O,inactive,
N=c1c2c(ncn1Cc1ccco1)Oc1ccc3ccccc3c1C2c1ccccc1 (centres undefined),active: 14.6 µM,

SMILES,Potency,"activity change, negative = inhibition"
Cc1cccc(C(=O)N2CCC(=O)N(C(COCc3ccc(Cl)cc3)Cc3ccccc3)CC2)c1 (centres undefined),"inconclusive: 25.9 µM [inhibitor, partial curve]",
Nc1cccc2c3c(oc12)CCCC3,inactive,
COc1cc(OC)cc(-c2ncc3ccccn23)c1,inactive,
O=C(CSc1nc2ccc([N+](=O)[O-])cc2[nH]1)NC1CCCCCC1,active: 16.4 µM,
COc1cccc(NC(=O)c2ccc(NCCCN3CC(C)CC(C)C3)c([N+](=O)[O-])c2)c1 (centres undefined),"inconclusive: 29.1 µM [activator, single point]",
O=C(Nc1cccc(NC(=O)c2cccs2)c1)c1cccnc1,"inconclusive: 20.6 µM [inhibitor, single point]",
CC1(C)C(=O)Nc2ccccc2N1C(=O)CSc1ncccn1,inactive,
Cc1cc(NC(=O)/C=C/c2ccc(F)cc2)n(-c2nc3ccccc3[nH]2)n1,inactive,
Fc1ccc(CNC(=S)NC2CCCCCC2)cc1,"inconclusive: 29.1 µM [inhibitor, partial curve, poor fit]",
Cc1ccc(NC(=O)/C(=C/c2ccncc2)NC(=O)c2ccccc2)cc1,inactive,
O=C(CN(C(=O)c1ccc(Cl)cc1)C1CCCCC1)Nc1ccc(Cl)c([N+](=O)[O-])c1,"inconclusive: 29.1 µM [inhibitor, single point]",
Cc1cnc(NC(=O)c2ccc(Cl)nc2)s1,"inconclusive: 5.8 µM [activator, partial curve]",
CCOC(=O)C1(Cc2cccc(OC)c2)CCN(Cc2ccccc2OC)CC1,"inconclusive: 29.1 µM [inhibitor, single point]",
CCOC(=O)C1(Cc2ccccc2)CCN(Cc2ccc3cc(NC(C)=O)ccc3n2)CC1,inactive,
COCCn1c(=O)[nH]c2cc(C(=O)NCCN3CCN(c4ccccc4)CC3)ccc2c1=O,inactive,
COc1ccc(/C(C)=N/NC(=O)C2CC2)cc1,"inconclusive: 16.4 µM [activator, single point]",
COc1ccc(C(=O)Nc2ccncc2)cc1S(=O)(=O)N1CCOCC1,"inconclusive: 12.6 µM [activator, partial curve]",
Cc1cc(C)c(NC(=O)C2C3/C=C\CCCCC32)c(C)c1 (centres undefined),inactive,
CN(C)c1ccnc2sc(C(=O)c3ccccc3)c(N)c12,"inconclusive: 8.2 µM [activator, partial curve]",
COc1ccc(NC(=S)Nc2ccc3snnc3c2)cc1,"inconclusive: 18.3 µM [activator, single point]",
CC(C)CCNc1nc2ccccc2nc1NS(=O)(=O)c1cccs1,"inconclusive: 29.1 µM [inhibitor, single point]",
C=CCSc1nncn1/N=C/c1ccc(OC)cc1,"inconclusive: 8.91 µM [activator, partial curve]",
O=c1c2ccccc2nnn1Cc1ccc2ccccc2c1,"inconclusive: 23.1 µM [activator, partial curve, poor fit]",

# Laid out differently: entries from further up
SMILES	Potency	activity change, negative = inhibition
Cc1ccc(C)c(NC(=O)COc2coc(CN3CCc4ccccc43)cc2=O)c1	inconclusive: 16.4 µM [inhibitor, partial curve]	
CCCCC(c1nnnn1CC1CCCO1)N1CCN(c2nc3ccccc3s2)CC1 (centres undefined)	inconclusive: 23.1 µM [inhibitor, single point]	
CSc1nsc(SCC(=O)Nc2ccc(NC(C)=O)cc2)n1	inconclusive: 16.4 µM [activator, partial curve, poor fit]	

# Continuation:

SMILES,Potency,"activity change, negative = inhibition"
Cc1cccc(N2CC(C)Cn3c2nc2c3c(=O)n(CC(=O)OCc3ccccc3)c(=O)n2C)c1 (centres undefined),"inconclusive: 12.6 µM [inhibitor, partial curve, poor fit]",
NC(=O)c1cc(-c2ccccc2)nc(N2CCCCCC2)n1,"inconclusive: 29.1 µM [inhibitor, single point]",
CCC(=NCCc1ccc(OC)c(OC)c1)C1=C(O)CC(C)(C)CC1=O,"inconclusive: 20.6 µM [inhibitor, single point]",
COc1ccc(OC)c(-c2nnc(NC(=O)C(C)Sc3nncn3C)s2)c1 (centres undefined),"inconclusive: 18.4 µM [inhibitor, partial curve, poor fit]",
O=C(Nc1cc(N2CCOCC2)ncn1)c1ccc(F)cc1,"inconclusive: 23.1 µM [activator, single point]",
COc1ccc(/C=C/C(=O)NNC(=O)c2ccncc2)c(OC)c1,"inconclusive: 29.1 µM [activator, single point]",
COc1ccc(CCNC(=O)c2cc3c(=O)n4ccccc4nc3n(C3CCCCC3)c2=N)cc1,active: 23.1 µM,
O=S(=O)(Nc1nc2ccc(Cl)cc2s1)c1cccs1,"inconclusive: 23.1 µM [activator, single point]",
Cc1cc(C(=O)N/N=C\C(Br)=C\c2ccccc2)c(C)o1,"inconclusive: 13 µM [activator, partial curve]",
CCOC(=O)CCNC(=O)c1ccccc1Br,"inconclusive: 35.5 µM [activator, single point]",
Cn1cccc1C(=O)C(=O)Nc1ccccc1,"inconclusive: 4.11 µM [activator, full curve]",
CC(Nc1nc(-c2cccc(Br)c2)cs1)c1nc2cc(Cl)c(N3CCCCC3)cc2n1CCOCCO (centres undefined),,inconclusive: 25.3% [activator]
CCCc1c(NC(=O)Nc2ccc(Cl)cc2Cl)cnn1-c1ccccc1,"inconclusive: 13 µM [activator, partial curve]",
COc1ccc(N=C2S/C(=C\c3ccc(N4CCOCC4)o3)C(=O)N2CCc2c[nH]c3ccccc23)cc1,"inconclusive: 11.2 µM [inhibitor, partial curve, poor fit]",
C/C(=N\NC(=O)COc1ccccc1F)c1cc2ccccc2o1,"inconclusive: 13 µM [activator, partial curve]",
Cc1ccc(-c2cc(N)on2)cc1,"inconclusive: 23.1 µM [activator, single point]",
Cc1[nH]nc(Nc2ccc(C(C)C)cc2)c1[N+](=O)[O-],"inconclusive: 4.61 µM [activator, full curve]",
CC#CC(=O)N1CCCC(Cc2cccc(OC)c2)(C(=O)OCC)C1 (centres undefined),"inconclusive: 20.6 µM [activator, partial curve]",
COc1ccc(NC(=O)CC2C(=O)N(c3ccc(OC)cc3)C(=S)N2NC(=O)c2cccc(F)c2)cc1 (centres undefined),inactive,
Cn1cc(CN2CCN(c3ncccn3)CC2)c(-c2cccc(Cl)c2)n1,inactive,
Nc1c(C(=O)NCCN2CCOCC2)c2nc3ccccc3nc2n1CCc1ccccc1,"inconclusive: 18.4 µM [inhibitor, single point]",
O=c1c2ccccc2[nH]c(=S)n1C1CCCCC1,"inconclusive: 14.6 µM [activator, partial curve]",
O=S(=O)(NC1CCCC1)c1cccc(-c2nnc(-c3ccccc3)o2)c1,"inconclusive: 29.1 µM [inhibitor, single point]",

# — PubChem BioAssay AID504467 (National Center for Advancing Translational Sciences (NCATS), 2011)
